The campaign covered roughly 340,000 compounds. About 4,500 (1.3%) were called active. This list was built around the results that the source calls inconclusive (neither active nor inactive); the mix of calls is not that of the screen. Calls come from the whole dose curve; as a rule, active = well fitted inhibition curve with a large enough effect; inconclusive = small, poorly fitted or top-dose-only effect, or another doubt; inactive = no such curve, though single readings can be large or run the other way. Potencies beside an inconclusive call are fits to weak or partial responses and may not hold up.
The compounds below were run against DNA polymerase beta (Homo sapiens) (UniProt P06746) (assay: qHTS Assay for Inhibitors of DNA Polymerase Beta). Settings: Pol beta primer extension/strand displacement, fluorescence kinetic; activity change, negative = inhibition: at 114 µM (top of the series).
Outline: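 Reaction started by 50 nM substrate onto compound-treated Pol beta (10 nM, 15 min preincubation, room temperature); plates read at 0 min and 10 min. Normalized concentration-effect data fitted by four-parameter Hill equation.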
With `CCn1c(SCC(=O)Nc2nc3ccc(C)cc3s2)nc2c(c1=O)SC(C)C2` (configuration not stated) the Potency was inconclusive: 0.251 µM [inhibitor, full curve, poor fit].
For `Oc1ccccc1C(=S)N1CCCCCC1`, the Potency was inconclusive: 31.6 µM [inhibitor, full curve, poor fit].
`COc1cccc(C(=O)/C=C/Nc2cc(C)ccc2O)c1` was tested, and the Potency was inconclusive: 0.891 µM [inhibitor, full curve, poor fit].
With `Cc1nnc2n1CCCCC2` the Potency was inconclusive: 79.4 µM [inhibitor, single point].
`Cc1ccc(S(=O)(=O)NCC(c2ccc(N(C)C)cc2)N2CCOCC2)cc1` (configuration not stated) was tested, and the Potency was inconclusive: 89.1 µM [inhibitor, single point].
`N#Cc1cccc(NC(=O)CSc2ccc3c4c(cccc24)C(=O)c2ccccc2-3)c1` was tested, and the Potency was inconclusive: 35.5 µM [inhibitor, partial curve].
In the case of `CCN(CC)CCN(C(=O)c1cc2ccccc2cc1OC)c1nc2ccc(OC)cc2s1`, the activity change, negative = inhibition is reported as inconclusive: -36.6% [inhibitor].
For `CCN1CCN(c2oc(COc3ccc(Cl)cc3)nc2C#N)CC1`, the Potency was inconclusive: 0.158 µM [inhibitor, full curve].
With `Cc1cccc(OCC(=O)OCc2cc(=O)n3nc(C4CCCCC4)sc3n2)c1` the Potency was inconclusive: 20 µM [inhibitor, full curve, poor fit].
`COc1ccc(C(=O)COC(=O)c2cccc(NC(=O)c3ccc(OC)c(OC)c3)c2)cc1` was tested, and the Potency was inconclusive: 0.1 µM [inhibitor, full curve, poor fit].
`CCOC(=O)C(CC)n1nc(C)n2c(cc3occc32)c1=O` (configuration not stated) was tested, and the Potency was inconclusive: 0.1 µM [inhibitor, full curve, poor fit].
For `COc1ccc(Cl)cc1N(CC(=O)N1CCN(Cc2ccccc2)CC1)S(C)(=O)=O`, the Potency was inconclusive: 89.1 µM [inhibitor, single point].
In the case of `COc1ccc(C(=O)OC(C(=O)c2ccccc2)c2ccccc2)cc1` (configuration not stated), the Potency is reported as inconclusive: 89.1 µM [inhibitor, single point].
`COC(=O)CSc1nnc(C)c(=O)[nH]1` was tested, and the Potency was inconclusive: 89.1 µM [inhibitor, single point].
`CSCCC1NC2(C(=O)Nc3c2ccc(Cl)c3C)[C@@H]2C(=O)N(C3CCCC3)C(=O)[C@H]12` (some centres not stated) was tested, and the Potency was inconclusive: 28.2 µM [inhibitor, partial curve].
`O=S(=O)(Cc1ccccc1)N1CCc2ccccc21` was tested, and the Potency was inconclusive: 35.5 µM [inhibitor, partial curve].
In the case of `C=CCn1c(SCC(=O)c2cccs2)nc2sc(C)c(C)c2c1=O`, the Potency is reported as inconclusive: 89.1 µM [inhibitor, partial curve, poor fit].
With `C(=N\n1cnnc1SCc1ccccc1)/c1ccco1` the Potency was inconclusive: 0.501 µM [inhibitor, full curve, poor fit].
For `O=C1OCCN1C(=O)[C@H]1[C@H](c2ccc(F)cc2)C(c2ccc(F)cc2)=NN1c1ccccc1`, the Potency was inconclusive: 89.1 µM [inhibitor, single point].
With `CCOC(=O)Cn1c(=O)c2c(nc(N3CCCCC3)n2C)n(C)c1=O` the Potency was inconclusive: 89.1 µM [inhibitor, single point].
For `O=C(CSc1nc2cc(Cl)ccc2s1)NC(=O)NCc1ccco1`, the Potency was active: 44.7 µM.
In the case of `O=[N+]([O-])c1ccc(/C=N/Nc2ccnc3cc(Cl)ccc23)o1`, the Potency is reported as inconclusive: 56.2 µM [inhibitor, partial curve].
`COc1cccc(NS(=O)(=O)c2ccc3[nH]cc(C(=O)N4CCCCCC4)c(=O)c3c2)c1` was tested, and the Potency was inconclusive: 12.6 µM [inhibitor, full curve].
With `N=c1c(S(=O)(=O)c2ccccc2)cc2c(=O)n3ccccc3nc2n1Cc1ccco1` the Potency was active: 17.8 µM.
For `CCS(=O)(=O)N1CCC(n2c(C(F)(F)F)nc3cccnc32)CC1`, the Potency was inconclusive: 89.1 µM [inhibitor, single point].
For `CCN(CC)c1cc(C)c2cc(NC(=O)c3ccccc3OC)ccc2n1`, the Potency was inconclusive: 89.1 µM [inhibitor, single point].
For `CCSc1nc(-c2ccccc2)c(C#N)c(=O)[nH]1`, the Potency was inconclusive: 89.1 µM [inhibitor, single point].
In the case of `COc1ccccc1CCN1C(=S)NC(C)(C)CC1(C)O` (configuration not stated), the Potency is reported as inconclusive: 35.5 µM [inhibitor, partial curve].
With `Cc1ccc(C(=O)NCc2occc2C(=O)O)o1` the Potency was active: 20 µM.
`Cc1cc(C)c(OCCNC(=O)c2ccccc2Sc2ccccc2C#N)c(C)c1` was tested, and the Potency was inconclusive: 79.4 µM [inhibitor, single point].
`O=C(O)CCCNC(=O)/C(=C\C=C\c1ccccc1)NC(=O)c1ccccc1Cl` was tested, and the Potency was inconclusive: 89.1 µM [inhibitor, single point].
`Cc1cc(Br)c(NC(=O)Cn2c([N+](=O)[O-])cnc2C)cc1C` was tested, and the Potency was inconclusive: 89.1 µM [inhibitor, single point].
With `CCCC1=Nc2cc(C(=O)NC(C)c3ccccc3)ccc2Sc2ccc(C)cc21` (configuration not stated) the “activity change, negative = inhibition” value was inactive: -14.2%.
With `Cc1nn(-c2ccccc2)c(C)c1/C=N/NC(=O)c1cc(C23CC4CC(CC(C4)C2)C3)[nH]n1` the Potency was inconclusive: 56.2 µM [inhibitor, partial curve].
`CC1=NN(c2ccc(C)cc2C)C(=O)C1C(c1cccc(O)c1)C1C(=O)N(c2ccc(C)cc2C)N=C1C` (configuration not stated) was tested, and the “activity change, negative = inhibition” value was inactive: 36.1%.
With `Cc1cccc(N(C)S(=O)(=O)c2ccc3c(c2)C(C)(C)C(=O)N3C)c1` the Potency was active: 22.4 µM.
In the case of `COc1ccc(CCNc2ncnc3c2cnn3-c2ccc(C)cc2)cc1`, the “activity change, negative = inhibition” value is reported as inactive: 6.86%.
With `O=C1CCC(C(=O)N2CCCCO2)CN1Cc1cccc(F)c1` (configuration not stated) the “activity change, negative = inhibition” value was inactive: 10.2%.
With `CC(C)Cn1c(N)c(C(=O)COC(=O)c2cc(-c3ccco3)nc3ccccc23)c(=O)n(C)c1=O` the Potency was active: 14.1 µM.
In the case of `Cc1ccc(CNC(=O)CSc2cc(C)[nH]c(=O)n2)cc1`, the Potency is reported as inconclusive: 22.4 µM [inhibitor, full curve, poor fit].
For `Cc1cccc(N2C(=O)CSC2c2cccnc2)c1` (configuration not stated), the Potency was active: 100 µM.
With `COc1ccc(S(=O)(=O)N2CCC(Oc3ccc(-n4cnnn4)cc3)CC2)cc1OC` the “activity change, negative = inhibition” value was inactive: 2.64%.

Reference: PubChem BioAssay AID485314 (National Center for Advancing Translational Sciences (NCATS), 2010)
% is set by controls: 0 for no effect and ±100 for the full control effect; potency is the fitted concentration of half-maximal effect.
